From paper PMC10154249, “Unique progerin C-terminal peptide ameliorates Hutchinson–Gilford progeria syndrome phenotype by rescuing BUBR1” (Nature Aging, 2023)

system: progerin; experiment: MS analysis of progerin-binding proteins; details: Fig. 4e; sequence coverage of interacting protein

Point of comparison: HSP70, “Coverage (mass spectrometry assays of the interacting proteins of progerin)” value 11.86%. Against it:
- EF1γ — higher, 14.19%
- PTBP1 — lower, 10.92%
